Measurements reported in PubChem BioAssay AID504793 (Drosophila RNAi Screening Center, 2011)

Aim: 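Knock-downs allowing continued mitosis even though DNA is damaged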 (primary screen)
Cell system: Drosophila S2R+ cells
Reagents: long dsRNA against Drosophila genes, about 0.25 µg dsRNA per well
Timing: 4 days of dsRNA, then 4 hours of drug before read-out
Treatment: doxorubicin 0.5 µM for 4 hours to cause double-strand breaks, in cells also given a low, harmless dose of dsRNA against nbs to sensitise the assay
Read-out: 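Mitotic index as the number of phospho-histone H3-positive cells in each well following doxorubicin, given as raw counts without normalisation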
Scale: mitotic cells: higher = more cells in mitosis, weaker G2 arrest
Active means: 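a call needs confirmation in secondary tests, with other dsRNAs and a check of mitotic timing without damage, not just a high primary count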
Meaning of the calls: active = confirmed in follow-up tests; inactive = not confirmed
The screen tested about 23,000 reagents; shown is a random part of those that have a named target and a result. Over the whole deposit, 62 (0.27%) got an active call. 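Calls come from follow-up tests whose scores are not deposited, so confirmed genes may have low counts here; counts are not normalised per plate.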 Raw values are not corrected between plates. A number with no mark means an inactive call. Names joined by + are all predicted targets of the reagent. No sequences are given here.

gene | dsRNA | mitotic cells, replicate 1
CG11586 | DRSC08203 | 8
CG11586 | DRSC27459 | 7
CG9743 | DRSC16552 | 6
CG9743 | DRSC28943 | 1
CG14974 | DRSC08433 | 9
ste24c + CG30461 | DRSC05639 | 2
ste24c + CG30461 | DRSC07316 | 6
CG33259 | DRSC10854 | 5
CG33259 | DRSC29910 | 9
indra | DRSC08558 | 6
indra | DRSC26845 | 8
CG6659 | DRSC20003 | 5
Spp | DRSC00328 | 5
CG42700 | DRSC06293 | 4
CG42700 | DRSC23109 | 21
CG42700 | DRSC27344 | 6
CG30184 | DRSC22277 | 9
CG30184 | DRSC29631 | 3
LamC | DRSC07453 | 3
LamC | DRSC25517 | 6
X11L | DRSC19958 | 9
X11L | DRSC19959 | 11
X11L | DRSC25616 | 6
CG12661 | DRSC17864 | 7
CG12661 | DRSC29244 | 4
CG13186 | DRSC06311 | 7
CG16896 | DRSC04284 | 8
lncRNA:roX1 | DRSC21884 | 12
GNBP2 | DRSC10404 | 5
CG31140 | DRSC14603 | 7
CG31140 | DRSC15904 | 7
Patr-1 | DRSC14159 | 13
Patr-1 | DRSC26481 | 10
ergic53 | DRSC11389 | 4
CG6153 | DRSC02935 | 8
CG14805 | DRSC18554 | 17
KFase | DRSC03258 | 2
KFase | DRSC30035 | 4
CG4374 | DRSC15570 | 9
CG4374 | DRSC27482 | 6
CG17982 | DRSC18143 | 10
MTF-1 | DRSC11217 | 11
MTF-1 | DRSC21341 | 10
eIF3i | DRSC03464 | 8
CG3437 | DRSC10366 | 4
CG3437 | DRSC24768 | 13
Rb97D | DRSC16815 | 14
Rb97D | DRSC25278 | 2
Obp50c + Obp50b | DRSC05482 | 3
CG1407 | DRSC29339 | 2
CG8138 | DRSC16386 | 5
Paics | DRSC20305 | 6
Ube3a | DRSC10600 | 5
Srp54 | DRSC03442 | 5
ThrRS | DRSC02843 | 6
Cpr49Ae | DRSC07201 | 1
Cpr49Ae | DRSC27662 | 11
Pdrg1 | DRSC28485 | 10
tay | DRSC20142 | 7
Roe1 | DRSC07534 | 6
Roe1 | DRSC26435 | 13
CG32814 | DRSC17670 | 4
CG32814 | DRSC26042 | 6
CG12986 | DRSC19506 | 11
ppk24 | DRSC15093 | 11
ND-PDSW | DRSC00715 | 5
CG14642 | DRSC12228 | 5
sev | DRSC20372 | 12
AnxB9 | DRSC14111 | 7
AnxB9 | DRSC25715 | 6
edl | DRSC06516 | 8
edl | DRSC28035 | 4
sphinx1 | DRSC10993 | 3
sphinx1 | DRSC24818 | 15
CG3071 | DRSC18526 | 3
CG3071 | DRSC26289 | 10

Single entries from above.
CG14974 [DRSC08433], mitotic cells, replicate 1 → 9
Value of CG11586 [DRSC08203] under “mitotic cells, replicate 1”: 8
For “mitotic cells, replicate 1”, CG13186 [DRSC06311] is entered as 7
Value for CG42700 [DRSC23109] in “mitotic cells, replicate 1”: 21
Under “mitotic cells, replicate 1”, sev [DRSC20372] shows 12
Entry for CG3071 [DRSC18526] in “mitotic cells, replicate 1”: 3
